Results: PubChem BioAssay AID504834 (National Center for Advancing Translational Sciences (NCATS), 2011)
The whole screen tested about 320,000 compounds, of which about 22,000 (6.9%) were called active. Inconclusive means that the source gave no clear call. Such entries were picked first, then a sample of the others. The call rests on the fitted dose curve; in most records, active means well fitted inhibition curve with a large enough effect; inconclusive means small, poorly fitted or top-dose-only effect, or another doubt; inactive means no such curve, though single readings can be large or run the other way. Where the call is inconclusive, the potency comes from a doubtful curve fit.

Assay: Primary qHTS for delayed death inhibitors of the malarial parasite plastid, 96 hour incubation
Conditions: P. falciparum luciferase reporter growth; series mostly up to 28.7 µM; activity change, negative = inhibition: at the top concentration
Method in brief: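 Compounds incubated with erythrocytes infected by luciferase-expressing P. falciparum (2% hematocrit, 0.05% parasitemia final) for 96 hours, 37 C in 5% CO2. Growth inhibition scored as decreased luciferase luminescence.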
On the % scale 0 is the no-effect control and ±100 the full control effect; potency means the concentration at half of the fitted maximal effect.

SMILES | Potency | activity change, negative = inhibition
Cc1ccc(CS(=O)(=O)CC(C)(O)c2ccccc2)cc1 (centres undefined) | inconclusive: 4.15 µM [inhibitor, partial curve, poor fit] | 
CCOC(=O)c1nnc2c(Br)c(-c3ccccc3)nn2c1C | inconclusive: 11.7 µM [inhibitor, single point] | 
CC(C)Oc1ccc(C2(C#N)CC[N+](C)(C)CC2)cc1 | inconclusive: 18.5 µM [inhibitor, single point] | 
COc1ccc(C(Nc2cc(C)ccn2)c2ccc3ccc(C)nc3c2O)cc1 (centres undefined) |  | inactive: -11.2%
CC(C)(C)C(=O)Nc1ccc(-c2cnco2)cc1 |  | inactive: 76.7%
Nc1ccc(-c2nnn(CC(=O)N3CCCCC3)n2)cc1 | inconclusive: 11.7 µM [inhibitor, single point] | 
Cc1ccc(C2C3=C(Nc4[nH]n(-c5ccccc5)c(=O)c42)c2ccccc2C3=O)cc1 (centres undefined) | active: 11.7 µM | 
COc1ccccc1CNc1ncc(-c2ccc(F)cc2)n1C | inconclusive: 8.28 µM [inhibitor, partial curve] | 
O=C1OC2(CCCCC2)CC2=C1C1O[C@](c3ccsc3)(Cc3c1ccc1ccccc31)O2 | inconclusive: 0.019 µM [inhibitor, full curve, poor fit] | 
Cc1ccc(Cl)cc1NC(=O)COc1ccccc1 |  | inactive: 22.4%
COc1ccc(C(=O)C2CCCN(C(=O)CCNC(C)=O)C2)cc1OC (centres undefined) | inconclusive: 18.5 µM [inhibitor, single point] | 
O=C(Cc1ccc(Cl)cc1Cl)NC1CCCCCC1 |  | inactive: -23.7%
COC(=O)Cc1ccc2c3ccccc3n(C)c2c1 |  | inactive: 0%
CCn1nc(C)cc1C(=O)NC1CC(C)(C)Cc2c1cnn2-c1cccc(F)c1 (centres undefined) |  | inactive: -29.9%
CC1CCCC(NC(=O)c2ccc(F)c(S(=O)(=O)N3CCOCC3)c2)C1C (centres undefined) | inconclusive: 16.5 µM [inhibitor, single point] | 
FC(F)Oc1ccc(-c2csc(Cc3nnc4n3CCCCC4)n2)cc1 | inconclusive: 18.5 µM [inhibitor, partial curve, poor fit] | 
O=c1cc(CN2CCN(Cc3ccccc3)CC2)c2ccc(O)cc2o1 | inconclusive: 18.5 µM [inhibitor, single point] | 
CCN(CC)CCn1c(SCC(=O)Nc2cccc(OC)c2)nc2c(sc3ccccc32)c1=O | inconclusive: 18.5 µM [inhibitor, single point] | 
O=C(COc1ccc(/C=N/NS(=O)(=O)c2ccccc2)cc1)Nc1ccccc1 | inconclusive: 0.0828 µM [inhibitor, full curve, poor fit] | 
CC(=O)c1cnc2cc(-c3cccc(Br)c3)nn2c1C | inconclusive: 2.08 µM [inhibitor, partial curve, poor fit] | 
CCc1cccc(CC)c1NC(=O)COc1ccccc1C(=O)c1cc(C#N)c(=O)n(C2CCCCC2)c1 | inconclusive: 3.7 µM [inhibitor, partial curve, poor fit] | 
Cc1ccccc1N=C1SC(CC(=O)Nc2ccc3ccccc3c2)C(=O)N1Cc1ccccn1 (centres undefined) | active: 3.7 µM | 
O=C(O)c1cc(Cl)c2ccccc2c1O | inconclusive: 10.4 µM [inhibitor, partial curve] | 

Part of the list above, reformatted:
SMILES	Potency	activity change, negative = inhibition
CCc1cccc(CC)c1NC(=O)COc1ccccc1C(=O)c1cc(C#N)c(=O)n(C2CCCCC2)c1	inconclusive: 3.7 µM [inhibitor, partial curve, poor fit]	
Cc1ccccc1N=C1SC(CC(=O)Nc2ccc3ccccc3c2)C(=O)N1Cc1ccccn1 (centres undefined)	active: 3.7 µM	

Carrying on.

SMILES | Potency | activity change, negative = inhibition
O=C(COc1ccc2c3c(c(=O)oc2c1)CCCC3)NCC(O)c1ccccc1 (centres undefined) | inconclusive: 14.7 µM [inhibitor, single point] | 
COC(=O)c1sc(S(=O)(=O)NC(Cc2ccccc2)C(=O)O)c(C(=O)OC)c1C (centres undefined) |  | inactive: -6.66%
Cc1cc(NC(=O)C2CCCC2)nc2c1c(=O)oc1ccccc12 |  | inactive: 56%
Cc1ccc(CN2CC(C(=O)Nc3ccc4c(C)cc(=O)oc4c3)CC2=O)cc1 (centres undefined) | inconclusive: 10.4 µM [inhibitor, single point] | 
O=C(CSc1nc2c(cnn2-c2ccccc2)c(=O)[nH]1)c1ccc(Cl)cc1 | inconclusive: 0.0026 µM [inhibitor, full curve, poor fit] | 
Cc1ccc(/C=C2\C(=O)NC(=S)N(c3ccc(F)cc3)C2=O)o1 | inconclusive: 18.5 µM [inhibitor, single point] | 
COc1ccc(CNC(=O)Cn2c(=O)oc3cc(S(=O)(=O)N4CCCC4)ccc32)cc1 | inconclusive: 10.4 µM [inhibitor, partial curve] | 
CN(C(=O)c1ccccc1C(=O)OCC(=O)Nc1ccccc1)c1ccccc1 | inconclusive: 18.5 µM [inhibitor, partial curve, poor fit] | 
Nc1ccccc1SC1CC(=O)N(c2ccc(Cl)c(Cl)c2)C1=O (centres undefined) |  | inactive: 86%
CCCn1nnnc1SCC(=O)c1ccc(NC(C)=O)cc1 | inconclusive: 18.5 µM [inhibitor, single point] | 
CSc1ccc(-c2cccc([N+](=O)[O-])c2)nn1 |  | inactive: 128%
COc1ccc(NC(=S)N(CCc2c(C)[nH]c3ccccc23)Cc2cccnc2)cc1 | inconclusive: 18.5 µM [inhibitor, single point] | 
CSc1nnc(OC(=O)N(C)C)n1-c1ccc(Cl)cc1 | inconclusive: 1.04 µM [inhibitor, full curve, poor fit] | 
C/C(=N/NS(=O)(=O)c1ccc(C)cc1C)c1ccc2c(c1)OCO2 |  | inactive: 7.6%
COc1cccc(C(=O)C2CCCN(Cc3ccccn3)C2)c1 (centres undefined) |  | inactive: 19.5%
Cc1nc2ccccc2c(=O)n1-c1cccc([N+](=O)[O-])c1 | inconclusive: 18.5 µM [inhibitor, single point] | 
CCc1nc2ccc(C(=O)N3CCN(c4ccc(Cl)cc4)CC3)cc2nc1CC | active: 5.22 µM | 
Cc1ccccc1C(=O)NCCOc1ccccc1Cl |  | inactive: -22.6%
COc1ccc(NC(=O)CSc2nnc(N)n2CC(=O)Nc2ccc(OC)cc2)cc1 | inconclusive: 10.4 µM [inhibitor, single point] | 
Cn1ccc(C(=O)OCC(=O)Nc2cccc3ccccc23)n1 | inconclusive: 13.1 µM [inhibitor, single point] | 
COc1ccccc1NC(=O)CSc1nnc(-c2ccccn2)n1Cc1ccco1 | active: 11.7 µM | 
Brc1c(CSc2nc3ccccc3s2)nc2ncccn12 | active: 3.29 µM | 
CCN(CC)C(=O)CSc1nc2ccccc2c(=O)n1CCC(=O)N1CCN(c2ccccc2)CC1 | inconclusive: 4.65 µM [inhibitor, partial curve, poor fit] | 

SMILES | Potency | activity change, negative = inhibition
Cc1nnc(SCC(=O)N2CCN(S(=O)(=O)c3ccc(Cl)cc3)CC2)[nH]c1=O | inconclusive: 20.8 µM [inhibitor, partial curve, poor fit] | 
Cc1ccc(NC(=S)N2CCN(c3ncccn3)CC2)cc1C | inconclusive: 18.5 µM [inhibitor, single point] | 
CC1CCCCC12NC(=O)N(CC(=O)Nc1ccc(Cl)c(S(=O)(=O)N3CCOCC3)c1)C2=O (centres undefined) | inconclusive: 9.28 µM [inhibitor, single point] | 
COc1ccc(C)cc1-n1nnnc1SCc1csc(C)n1 | inconclusive: 11.7 µM [inhibitor, single point] | 
Oc1ccccc1C=NC1=NN(c2cccc(C(F)(F)F)c2)CC1 | active: 2.08 µM | 
Cc1ccc(-c2csc(N/N=C/c3ccco3)n2)cc1 | inconclusive: 0.522 µM [inhibitor, full curve, poor fit] | 
CN(Cc1ccccc1)C(NC(=O)c1ccccc1)C(Cl)(Cl)Cl (centres undefined) | inconclusive: 18.5 µM [inhibitor, single point] | 
COc1cc(-c2c(NC(=O)c3ccco3)oc3c(C)cccc3c2=O)cc(OC)c1OC | inconclusive: 18.5 µM [inhibitor, partial curve, poor fit] | 
COc1ccccc1C(CNC(=O)c1oc2ccccc2c1C)N1CCCC1 (centres undefined) | active: 13.1 µM | 
COc1ccc2nccc(C(N)=O)c2c1 |  | inactive: 0%
Cc1nn(S(=O)(=O)c2cccc([N+](=O)[O-])c2)c(C)c1S(=O)(=O)N1CCOCC1 | inconclusive: 10.4 µM [inhibitor, single point] | 
CNC(=O)c1c(I)c(C(=O)NCC(=O)Nc2c(I)c(C(=O)O)c(I)c(C(=O)NCCO)c2I)c(I)c(N(C)C(C)=O)c1I | inactive | 
Cc1sc2ncnc(N3CCC(C(=O)N(CC(C)C)c4nc5ccccc5s4)CC3)c2c1C | active: 3.7 µM | 
O=C(NCCOC(=O)c1c(F)cccc1Cl)c1c(F)cccc1Cl | inconclusive: 11.7 µM [inhibitor, single point] | 
Cc1ccc(Cl)cc1NC(=O)C1C2CCC(O2)C1C(=O)O (centres undefined) |  | inactive: 198%
O=C(NCCCc1ccccc1)c1ccc(CS(=O)Cc2ccc(Cl)cc2)o1 (centres undefined) | inconclusive: 5.22 µM [inhibitor, partial curve] | 
CNC(=O)c1c(NC(=O)c2cccc(C)c2)sc2c1CCC2 |  | inactive: -22.2%
Cc1ccc(NC(=O)CSc2nncs2)cc1Cl |  | inactive: -26.5%
O=C1NC(Cc2c[nH]c3ccccc23)C(=O)N1Cc1cccc2ccccc12 (centres undefined) | inconclusive: 10.4 µM [inhibitor, single point] | 
Cc1cc(C)c(C)c(OCCOCCN2CCN(C)CC2)c1 | inconclusive: 0.465 µM [inhibitor, full curve, poor fit] | 
COc1cc(C2CC(=O)Nc3c2c(=O)nc2c(C)cccn32)cc(OC)c1OC (centres undefined) | inconclusive: 6.57 µM [inhibitor, partial curve, poor fit] | 
CCCc1cc(C(=O)Nc2ccc(CC)cc2)no1 | inconclusive: 13.1 µM [inhibitor, partial curve] | 
C#CCOCCOCCOCCNc1nc(N2CCN(C(=O)[C@H]([C@@H](C)CC)n3cc([C@@H](N)CC(C)C)nn3)CC2)nc(N2CCN(C(=O)[C@H](Cc3cc4ccccc4[nH]3)n3cc([C@@H](N)Cc4ccc(O)cc4)nn3)CC2)n1 | inconclusive: 4.15 µM [inhibitor, partial curve] | 
